Here are results for 31 compounds from the supplement of paper PMC6143611.

Structures can show the parent of a compound that is named as a salt. ± gives the uncertainty stated by the source. This is one part of the list. Plates or batches differ in their baseline, so values are only roughly comparable.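 Larvae carried a heat-shock-induced fluorescent stripe in rod outer segments, set at 6 dpf; the shedding distance runs from this stripe to the outer segment tip, measured in confocal stacks, about three fish per compound. The controls got 0.2% DMSO vehicle, and the paper flagged compounds with at least a 20% change against the same-week control and p < 0.001 (Dunnett test on mixed-effects models).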

The test system of experiment [1] is Danio rerio larva rod photoreceptor outer segment. The experiment can be described thus: rod outer segment growth distance Dg, difference from same-week DMSO control mean; higher = more outer segment growth. The following applies: 20 µM; treatment time: 4 days (6-10 dpf).
Experiment [2] has the same test system. The experiment can be described thus: rod outer segment shedding distance Ds, difference from same-week DMSO control mean; higher = less outer segment shedding. The following applies: 20 µM; treatment time: 4 days (6-10 dpf).

In the case of `COc1cc(/C=C/C(=O)N2CCN(CC(=O)N3CCCC3)CC2)cc(OC)c1OC` [Cinepazide maleate], the “rod outer segment growth distance Dg” value in experiment [1] stood at 1.05 ± 0.15 um. In addition, in experiment [2], the “rod outer segment shedding distance Ds” value was -0.03 ± 0.13 um.

With `CN(C)CC(=O)Nc1ccc2[nH]c(=O)c3ccccc3c2c1`, the “rod outer segment growth distance Dg” value in experiment [1] is -0.21 ± 0.19 um. Also, the “rod outer segment shedding distance Ds” value in experiment [2] was -0.04 ± 0.12 um.

For `CC(C)c1nc(CN(C)C(=O)N[C@@H](CCN2CCOCC2)C(=O)N[C@H](CC[C@H](Cc2ccccc2)NC(=O)OCc2cncs2)Cc2ccccc2)cs1` [Cobicistat (GS-9350)], the “rod outer segment growth distance Dg” value in experiment [1] was determined as 0.26 ± 0.24 um. Besides, the “rod outer segment shedding distance Ds” value in experiment [2] is -0.2 ± 0.13 um.

Consider `NC(=O)C1CCCc2c1[nH]c1ccc(Cl)cc21` (configuration not stated) [EX 527 (Selisistat)], for which the “rod outer segment growth distance Dg” value in experiment [1] is -1.29 ± 0.13 um. For the same compound, the “rod outer segment shedding distance Ds” value in experiment [2] was -0.64 ± 0.15 um.

As to `CC(NCCc1ccc(O)cc1)C(O)c1ccc(O)cc1` (configuration not stated) [Ritodrine HCl], the “rod outer segment growth distance Dg” value in experiment [1] is -0.33 ± 0.19 um. In addition, the “rod outer segment shedding distance Ds” value in experiment [2] is -0.3 ± 0.18 um.

For `COc1ccnc2[nH]cc(C(=O)C(=O)N3CCN(C(=O)c4ccccc4)C[C@H]3C)c12`, the “rod outer segment growth distance Dg” value in experiment [1] was -0.26 ± 0.17 um. Moreover, the “rod outer segment shedding distance Ds” value in experiment [2] is -0.55 ± 0.13 um.

Consider `CS(=O)(=O)CCNCc1ccc(-c2ccc3ncnc(Nc4ccc(OCc5cccc(F)c5)c(Cl)c4)c3c2)o1`, for which the “rod outer segment growth distance Dg” value in experiment [1] is -0.15 ± 0.19 um. Moreover, the “rod outer segment shedding distance Ds” value in experiment [2] was found to be 0.41 ± 0.24 um.

As for `CC(C)c1ccc(NC(=O)Cn2cnc3c2c(=O)n(C)c(=O)n3C)cc1`, the “rod outer segment growth distance Dg” value in experiment [1] was -1.63 ± 0.17 um. Also, the “rod outer segment shedding distance Ds” value in experiment [2] is -0.73 ± 0.15 um.

On to `CO[C@H]1C[C@@H]2CC[C@@H](C)[C@@](O)(O2)C(=O)C(=O)N2CCCC[C@H]2C(=O)O[C@H]([C@H](C)C[C@@H]2CC[C@@H](OCCO)[C@H](OC)C2)CC(=O)[C@H](C)/C=C(\C)[C@@H](O)[C@@H](OC)C(=O)[C@H](C)C[C@H](C)/C=C/C=C/C=C/1C` [Everolimus (RAD001)], for which the “rod outer segment growth distance Dg” value in experiment [1] was -3.9 ± 0.2 um. Further, in experiment [2], the “rod outer segment shedding distance Ds” value was -1.16 ± 0.17 um.

For `O=C(C[S+]([O-])Cc1ccco1)NC/C=C\COc1cc(CN2CCCCC2)ccn1` (configuration not stated) [Lafutidine], the “rod outer segment growth distance Dg” value in experiment [1] is -0.15 ± 0.24 um. Also, in experiment [2], the “rod outer segment shedding distance Ds” value came to 0.88 ± 0.23 um.

In the case of `CC(c1cc2ccccc2s1)N(O)C(N)=O` (configuration not stated) [Zileuton], the “rod outer segment growth distance Dg” value in experiment [1] was -1.13 ± 0.17 um. Moreover, in experiment [2], the “rod outer segment shedding distance Ds” value is -0.38 ± 0.18 um.

For the compound `Clc1ccc2nsnc2c1NC1=NCCN1` [Tizanidine HCl], in experiment [1], the “rod outer segment growth distance Dg” value was -1.05 ± 0.18 um. For the same compound, the “rod outer segment shedding distance Ds” value in experiment [2] is 0.01 ± 0.19 um.

Turning to `C[C@@H](Oc1cc(-n2cnc3ccc(CN4CCN(C)CC4)cc32)sc1C(N)=O)c1ccccc1C(F)(F)F`, the “rod outer segment growth distance Dg” value in experiment [1] is -1.26 ± 0.34 um. Moreover, the “rod outer segment shedding distance Ds” value in experiment [2] is -2.19 ± 0.33 um.

On to `Cc1ccccc1N1C(=O)c2cc(S(N)(=O)=O)c(Cl)cc2NC1C` (configuration not stated) [Metolazone], for which, in experiment [1], the “rod outer segment growth distance Dg” value was determined as 0.11 ± 0.2 um. Moreover, the “rod outer segment shedding distance Ds” value in experiment [2] was -0.14 ± 0.14 um.

Regarding `C[C@H](CCC(=O)O)[C@H]1CC[C@H]2[C@@H]3C[C@H](O)[C@@H]4C[C@H](O)CC[C@]4(C)[C@H]3CC[C@]12C` [Hyodeoxycholic acid (HDCA)], the “rod outer segment growth distance Dg” value in experiment [1] is -0.29 ± 0.36 um. Also, in experiment [2], the “rod outer segment shedding distance Ds” value turned out to be 0.33 ± 0.33 um.

Turning to `C[C@H](NCc1ccc(OCc2cccc(F)c2)cc1)C(N)=O` [Safinamide Mesylate], the “rod outer segment growth distance Dg” value in experiment [1] was determined as 0.32 ± 0.15 um. The “rod outer segment shedding distance Ds” value in experiment [2] was -0.75 ± 0.15 um.

With `COc1cccc2cc(-c3nc([C@H]4CC[C@H](C(=O)O)CC4)n4ncnc(N)c34)[nH]c12`, the “rod outer segment growth distance Dg” value in experiment [1] is -1.16 ± 0.2 um. In addition, in experiment [2], the “rod outer segment shedding distance Ds” value is -0.47 ± 0.11 um.

For the compound `CCOC(=O)c1ncn2c1CN(C)C(=O)c1cc(F)ccc1-2` [Flumazenil], the “rod outer segment growth distance Dg” value in experiment [1] was determined as 0.12 ± 0.29 um. Moreover, in experiment [2], the “rod outer segment shedding distance Ds” value turned out to be 0.47 ± 0.21 um.

Consider `COc1cc2c(cc1Cc1cccc(Cl)c1F)c(=O)c(C(=O)O)cn2[C@H](CO)C(C)C` [Elvitegravir (GS-9137, JTK-303)], for which, in experiment [1], the “rod outer segment growth distance Dg” value was -1.07 ± 0.23 um. For the same compound, the “rod outer segment shedding distance Ds” value in experiment [2] was 0.23 ± 0.25 um.

`N#CCNC(=O)c1ccc(-c2ccnc(Nc3ccc(N4CCOCC4)cc3)n2)cc1`: the “rod outer segment growth distance Dg” value in experiment [1] was -1 ± 0.21 um. Further, the “rod outer segment shedding distance Ds” value in experiment [2] was 1.15 ± 0.29 um.

Regarding `CCCCN1CCCCC1C(=O)Nc1c(C)cccc1C` (configuration not stated) [Bupivacaine HCl], the “rod outer segment growth distance Dg” value in experiment [1] stood at 0 ± 0.22 um. Besides, in experiment [2], the “rod outer segment shedding distance Ds” value is 0.04 ± 0.27 um.

`CC(=O)OCC(=O)[C@@]12OC(C)(C)O[C@@H]1C[C@H]1[C@@H]3C[C@H](F)C4=CC(=O)C=C[C@]4(C)[C@@]3(F)[C@@H](O)C[C@@]12C` [Fluocinonide]: the “rod outer segment growth distance Dg” value in experiment [1] was -1.7 ± 0.23 um. Besides, the “rod outer segment shedding distance Ds” value in experiment [2] was -0.41 ± 0.14 um.

For `Cc1ccc(F)c(NC(=O)Nc2ccc(-c3cccc4[nH]nc(N)c34)cc2)c1` [Linifanib (ABT-869)], the “rod outer segment growth distance Dg” value in experiment [1] was -0.24 ± 0.28 um. The “rod outer segment shedding distance Ds” value in experiment [2] was -1.13 ± 0.28 um.

Turning to `C=C1C(=O)[C@]23[C@H](O)[C@H]1CC[C@H]2[C@@]12CO[C@]3(O)[C@@H](O)[C@@H]1C(C)(C)CC[C@@H]2O` [Oridonin], in experiment [1], the “rod outer segment growth distance Dg” value is -2.57 ± 1.1 um. In addition, the “rod outer segment shedding distance Ds” value in experiment [2] was -3.47 ± 1.1 um.

On to `CO[C@H]1/C=C/O[C@@]2(C)Oc3c(C)c(O)c4c(O)c(c5c(nc6cc(C)ccn65)c4c3C2=O)NC(=O)/C(C)=C\C=C\[C@H](C)[C@H](O)[C@@H](C)[C@@H](O)[C@@H](C)[C@H](OC(C)=O)[C@@H]1C` [Rifaximin], for which the “rod outer segment growth distance Dg” value in experiment [1] was -0.24 ± 0.23 um. The “rod outer segment shedding distance Ds” value in experiment [2] is -0.03 ± 0.13 um.

On to `CCC(C)(C)c1ccc(CC(C)CN2C[C@@H](C)O[C@@H](C)C2)cc1` (some centres not stated) [Amorolfine HCl], for which the “rod outer segment growth distance Dg” value in experiment [1] is -2.29 ± 0.28 um. Also, the “rod outer segment shedding distance Ds” value in experiment [2] was determined as 0.09 ± 0.21 um.

As to `Cn1c(=O)cc(N2CCC[C@@H](N)C2)n(Cc2ccccc2C#N)c1=O` [Alogliptin], in experiment [1], the “rod outer segment growth distance Dg” value was -0.38 ± 0.16 um. In experiment [2], the “rod outer segment shedding distance Ds” value is -0.18 ± 0.11 um.

For the compound `COc1ccc([C@@H]2CC(=O)c3c(O)cc(O[C@@H]4O[C@H](CO)[C@@H](O)[C@H](O)[C@H]4O[C@@H]4O[C@@H](C)[C@H](O)[C@@H](O)[C@H]4O)cc3O2)cc1O` [Neohesperidin], the “rod outer segment growth distance Dg” value in experiment [1] was -2.95 ± 1.1 um. In addition, the “rod outer segment shedding distance Ds” value in experiment [2] was -3.55 ± 1.2 um.

In the case of `Nc1nccc2c1ncn2C1C=C(CO)C(O)C1O` (configuration not stated) [3-Deazaneplanocin A (DZNeP)], the “rod outer segment growth distance Dg” value in experiment [1] is -0.25 ± 0.19 um. Moreover, the “rod outer segment shedding distance Ds” value in experiment [2] turned out to be 0.08 ± 0.28 um.

Consider `COc1cc(NS(=O)(=O)c2ccc(N)cc2)nc(OC)n1` [Sulphadimethoxine], for which the “rod outer segment growth distance Dg” value in experiment [1] was determined as 1.84 ± 0.28 um. In experiment [2], the “rod outer segment shedding distance Ds” value stood at 0.19 ± 0.26 um.

`Nc1nc(F)nc2c1ncn2[C@@H]1O[C@H](COP(=O)(O)O)[C@@H](O)[C@@H]1O` [Fludarabine Phosphate]: the “rod outer segment growth distance Dg” value in experiment [1] is -0.98 ± 0.26 um. The “rod outer segment shedding distance Ds” value in experiment [2] is 0.17 ± 0.22 um.
